From publication PMC4704060 come the findings set out here.

For at least one entry, the source does not settle the construct or the ends of the probe. At least one verdict was read from the data and is not stated in words by the source. For some of these results: Tags and fusion partners may be left off the protein sequences shown.

In one data set the target is Bmsob (GST-sob) (UniProt A0A0U2IB10). Kind of data set: EMSA. The following applies: LightShift Chemiluminescent EMSA kit (binding buffer, salt and temperature not stated); 0.8 ug protein, 1-6 pmol biotin probe, 2-100 pmol unlabeled probe; recombinant protein; residues 1-436; protein details: GST (pGEX-4T-1); label: 5' biotin. In general terms: In EMSA bound probe runs differently from free probe, usually more slowly.

The next data set concerns the target T1, BmDsp (His-Dsp) (UniProt H9IV52).
T1 sequence (looked up): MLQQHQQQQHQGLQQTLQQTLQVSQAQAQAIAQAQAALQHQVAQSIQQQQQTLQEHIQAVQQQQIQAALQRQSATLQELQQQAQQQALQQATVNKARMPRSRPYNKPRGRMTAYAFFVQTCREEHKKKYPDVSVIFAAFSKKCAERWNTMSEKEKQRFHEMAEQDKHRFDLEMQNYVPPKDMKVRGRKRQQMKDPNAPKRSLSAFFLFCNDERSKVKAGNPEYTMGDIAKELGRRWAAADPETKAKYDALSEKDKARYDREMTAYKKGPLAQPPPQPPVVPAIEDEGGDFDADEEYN
Kind of data set: EMSA. The following applies: LightShift Chemiluminescent EMSA kit (binding buffer, salt and temperature not stated); 0.8 ug protein, 1-6 pmol biotin probe, 2-100 pmol unlabeled probe; recombinant protein; residues 1-297; protein details: His (pET-28a(+)); label: 5' biotin.

In the case of “AATATCCCTCGCCTAGTTACGCTGGC (double strand) [Bmsob-BmDsp probe]”, the binding result with Bmsob (GST-sob) was “binds”.

Regarding “CGCGCTCCCGCCACACGCGAC (double strand) [Bmsob-BmUbx probe]”, the binding result in the data set with Bmsob (GST-sob) is on record as “binds”.

For “GAAAAATTGTTTTACCTGGAACTATA (double strand) [BmDsp-BmAbd-B probe]”, the binding result with BmDsp (His-Dsp) is recorded as “binds”.

On to “GATAAGGAAAGGAAAAGAGAG (double strand) [BmDsp-BmUbx probe]”, for which the binding result with BmDsp (His-Dsp) is given as “binds”.

On to “GCCCTTGGGGCCGAAAATCTG (double strand) [Bmsob-BmAntp probe]”, for which the binding result with Bmsob (GST-sob) is on record as “binds”.

“GCCTCGGCGCGCCCTGCGACG (double strand) [Bmsob-BmAbd-B probe]”: the binding result in the data set with Bmsob (GST-sob) is “binds”.

With “GCGACGGAAAATACGGACGT (double strand) [BmDsp-BmAntp probe]”, the binding result with BmDsp (His-Dsp) is given as “binds”.
